Measurements: the supplement of paper PMC11006884
Only a part is listed here, and it is no random draw.

By UniProt entry, the sequences of proteins in these tests, tags left out. Where a name states a change or a piece, a line headed by the entry shows the natural chain unless it says otherwise.
UniProt P07814: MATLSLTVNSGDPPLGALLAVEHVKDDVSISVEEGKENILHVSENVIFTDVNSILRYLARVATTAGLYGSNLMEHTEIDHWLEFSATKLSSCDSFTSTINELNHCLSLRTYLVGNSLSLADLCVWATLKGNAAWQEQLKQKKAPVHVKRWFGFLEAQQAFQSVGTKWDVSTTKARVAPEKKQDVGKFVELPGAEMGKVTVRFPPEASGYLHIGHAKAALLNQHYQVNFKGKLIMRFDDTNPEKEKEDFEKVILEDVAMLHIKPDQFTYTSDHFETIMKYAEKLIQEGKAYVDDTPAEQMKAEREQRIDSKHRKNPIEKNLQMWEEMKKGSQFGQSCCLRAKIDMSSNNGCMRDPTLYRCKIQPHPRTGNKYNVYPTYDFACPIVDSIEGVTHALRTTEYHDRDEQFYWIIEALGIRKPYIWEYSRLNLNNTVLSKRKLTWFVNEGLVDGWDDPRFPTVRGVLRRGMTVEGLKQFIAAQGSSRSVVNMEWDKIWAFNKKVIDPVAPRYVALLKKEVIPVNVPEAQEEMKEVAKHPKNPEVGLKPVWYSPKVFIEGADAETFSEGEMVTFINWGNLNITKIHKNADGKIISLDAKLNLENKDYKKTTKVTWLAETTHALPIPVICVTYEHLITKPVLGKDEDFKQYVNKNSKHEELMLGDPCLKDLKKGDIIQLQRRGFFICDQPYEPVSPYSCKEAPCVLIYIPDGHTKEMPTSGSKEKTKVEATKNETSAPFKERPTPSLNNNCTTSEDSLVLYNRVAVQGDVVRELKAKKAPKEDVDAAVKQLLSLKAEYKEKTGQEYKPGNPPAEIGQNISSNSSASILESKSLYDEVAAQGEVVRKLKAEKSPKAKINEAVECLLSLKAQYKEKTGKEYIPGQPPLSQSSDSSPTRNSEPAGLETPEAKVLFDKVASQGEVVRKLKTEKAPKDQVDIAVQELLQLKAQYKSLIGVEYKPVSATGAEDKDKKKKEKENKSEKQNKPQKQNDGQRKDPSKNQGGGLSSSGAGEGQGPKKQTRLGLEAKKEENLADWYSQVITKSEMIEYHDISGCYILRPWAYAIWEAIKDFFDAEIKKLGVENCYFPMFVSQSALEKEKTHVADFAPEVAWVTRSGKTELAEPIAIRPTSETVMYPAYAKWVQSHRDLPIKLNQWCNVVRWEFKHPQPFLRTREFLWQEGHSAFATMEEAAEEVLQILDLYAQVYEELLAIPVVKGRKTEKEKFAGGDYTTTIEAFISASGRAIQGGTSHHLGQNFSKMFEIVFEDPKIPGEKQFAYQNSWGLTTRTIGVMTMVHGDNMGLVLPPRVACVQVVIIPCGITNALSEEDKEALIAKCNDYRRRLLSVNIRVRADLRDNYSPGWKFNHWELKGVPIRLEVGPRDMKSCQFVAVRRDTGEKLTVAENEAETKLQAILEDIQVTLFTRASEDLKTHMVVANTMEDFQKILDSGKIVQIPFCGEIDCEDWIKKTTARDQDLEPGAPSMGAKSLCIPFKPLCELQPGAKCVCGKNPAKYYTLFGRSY
UniProt P04075: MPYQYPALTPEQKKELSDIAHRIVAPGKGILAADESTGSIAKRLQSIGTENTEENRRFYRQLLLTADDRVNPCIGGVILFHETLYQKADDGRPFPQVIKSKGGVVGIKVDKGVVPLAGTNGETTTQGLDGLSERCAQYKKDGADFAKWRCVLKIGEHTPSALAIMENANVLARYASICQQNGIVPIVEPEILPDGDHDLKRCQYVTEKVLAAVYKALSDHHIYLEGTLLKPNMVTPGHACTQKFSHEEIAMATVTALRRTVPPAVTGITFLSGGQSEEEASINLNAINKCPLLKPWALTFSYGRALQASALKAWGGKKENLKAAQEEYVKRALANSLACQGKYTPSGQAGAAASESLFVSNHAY
UniProt P00367: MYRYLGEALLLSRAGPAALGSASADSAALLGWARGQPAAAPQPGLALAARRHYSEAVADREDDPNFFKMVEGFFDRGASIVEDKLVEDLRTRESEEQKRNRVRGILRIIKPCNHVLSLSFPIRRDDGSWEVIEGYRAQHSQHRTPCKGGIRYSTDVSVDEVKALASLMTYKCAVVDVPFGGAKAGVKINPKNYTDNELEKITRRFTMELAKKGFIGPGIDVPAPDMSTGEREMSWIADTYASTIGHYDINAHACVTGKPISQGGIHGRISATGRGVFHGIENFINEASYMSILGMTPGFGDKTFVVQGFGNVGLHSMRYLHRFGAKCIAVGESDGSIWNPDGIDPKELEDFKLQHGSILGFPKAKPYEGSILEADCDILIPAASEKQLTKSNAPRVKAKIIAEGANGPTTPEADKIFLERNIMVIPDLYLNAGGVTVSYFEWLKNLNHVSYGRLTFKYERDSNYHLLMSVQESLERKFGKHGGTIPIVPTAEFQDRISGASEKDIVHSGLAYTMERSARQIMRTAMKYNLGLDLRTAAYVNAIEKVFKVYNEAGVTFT
UniProt O95602, whole entry, looked up: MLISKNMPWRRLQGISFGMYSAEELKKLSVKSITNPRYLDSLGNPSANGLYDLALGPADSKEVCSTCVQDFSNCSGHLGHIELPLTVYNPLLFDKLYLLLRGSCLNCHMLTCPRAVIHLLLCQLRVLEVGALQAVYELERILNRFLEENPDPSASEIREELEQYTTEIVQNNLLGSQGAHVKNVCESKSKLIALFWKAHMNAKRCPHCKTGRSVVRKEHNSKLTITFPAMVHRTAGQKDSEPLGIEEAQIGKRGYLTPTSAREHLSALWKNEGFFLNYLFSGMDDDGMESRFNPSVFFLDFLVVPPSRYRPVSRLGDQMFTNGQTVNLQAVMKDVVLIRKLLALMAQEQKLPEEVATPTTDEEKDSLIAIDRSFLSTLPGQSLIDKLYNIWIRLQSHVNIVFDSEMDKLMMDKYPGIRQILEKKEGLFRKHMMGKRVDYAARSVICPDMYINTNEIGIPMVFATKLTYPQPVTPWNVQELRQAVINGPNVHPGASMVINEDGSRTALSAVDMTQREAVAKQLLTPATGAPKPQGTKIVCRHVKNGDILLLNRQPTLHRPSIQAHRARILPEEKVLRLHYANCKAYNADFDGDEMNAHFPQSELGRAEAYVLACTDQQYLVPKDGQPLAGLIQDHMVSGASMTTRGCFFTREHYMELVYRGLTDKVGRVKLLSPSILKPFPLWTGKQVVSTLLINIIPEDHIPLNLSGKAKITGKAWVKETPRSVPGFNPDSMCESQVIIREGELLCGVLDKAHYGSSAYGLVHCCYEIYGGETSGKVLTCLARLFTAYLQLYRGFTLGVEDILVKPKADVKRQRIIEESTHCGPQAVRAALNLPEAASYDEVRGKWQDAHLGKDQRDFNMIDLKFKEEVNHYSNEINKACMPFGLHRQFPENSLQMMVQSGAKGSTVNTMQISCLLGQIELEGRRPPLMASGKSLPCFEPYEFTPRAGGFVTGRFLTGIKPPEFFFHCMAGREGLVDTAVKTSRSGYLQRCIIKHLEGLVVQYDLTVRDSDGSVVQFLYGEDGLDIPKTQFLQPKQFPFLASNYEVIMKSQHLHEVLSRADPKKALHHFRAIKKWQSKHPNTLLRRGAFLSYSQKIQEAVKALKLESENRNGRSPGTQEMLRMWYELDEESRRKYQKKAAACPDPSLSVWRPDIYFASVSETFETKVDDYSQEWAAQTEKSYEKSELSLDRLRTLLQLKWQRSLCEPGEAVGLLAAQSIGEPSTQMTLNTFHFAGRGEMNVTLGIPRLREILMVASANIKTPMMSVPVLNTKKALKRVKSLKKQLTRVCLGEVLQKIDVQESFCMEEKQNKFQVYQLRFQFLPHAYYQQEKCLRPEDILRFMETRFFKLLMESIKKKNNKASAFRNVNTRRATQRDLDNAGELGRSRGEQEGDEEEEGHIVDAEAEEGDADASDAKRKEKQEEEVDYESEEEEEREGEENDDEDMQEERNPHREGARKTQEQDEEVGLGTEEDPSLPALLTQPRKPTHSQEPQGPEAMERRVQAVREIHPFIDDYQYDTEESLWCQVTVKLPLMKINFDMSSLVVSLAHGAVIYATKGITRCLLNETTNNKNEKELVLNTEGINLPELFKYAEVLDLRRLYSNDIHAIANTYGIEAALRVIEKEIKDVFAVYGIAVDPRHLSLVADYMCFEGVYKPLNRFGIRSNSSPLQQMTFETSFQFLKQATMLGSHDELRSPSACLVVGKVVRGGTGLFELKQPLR
UniProt P00441, whole entry, looked up: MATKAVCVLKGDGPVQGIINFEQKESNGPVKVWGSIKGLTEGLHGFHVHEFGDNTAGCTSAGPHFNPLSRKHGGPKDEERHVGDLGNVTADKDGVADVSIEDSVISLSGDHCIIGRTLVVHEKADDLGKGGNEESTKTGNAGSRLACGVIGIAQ
UniProt O95218: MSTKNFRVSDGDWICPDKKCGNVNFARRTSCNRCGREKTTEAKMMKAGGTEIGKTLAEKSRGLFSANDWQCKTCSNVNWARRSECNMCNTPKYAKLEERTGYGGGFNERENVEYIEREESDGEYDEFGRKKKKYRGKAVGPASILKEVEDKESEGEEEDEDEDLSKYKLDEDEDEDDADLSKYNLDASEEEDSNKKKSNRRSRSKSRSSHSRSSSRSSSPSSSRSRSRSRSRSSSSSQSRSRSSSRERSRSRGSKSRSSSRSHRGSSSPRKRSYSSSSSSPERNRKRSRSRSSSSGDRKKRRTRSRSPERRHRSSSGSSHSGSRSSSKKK
UniProt O94925: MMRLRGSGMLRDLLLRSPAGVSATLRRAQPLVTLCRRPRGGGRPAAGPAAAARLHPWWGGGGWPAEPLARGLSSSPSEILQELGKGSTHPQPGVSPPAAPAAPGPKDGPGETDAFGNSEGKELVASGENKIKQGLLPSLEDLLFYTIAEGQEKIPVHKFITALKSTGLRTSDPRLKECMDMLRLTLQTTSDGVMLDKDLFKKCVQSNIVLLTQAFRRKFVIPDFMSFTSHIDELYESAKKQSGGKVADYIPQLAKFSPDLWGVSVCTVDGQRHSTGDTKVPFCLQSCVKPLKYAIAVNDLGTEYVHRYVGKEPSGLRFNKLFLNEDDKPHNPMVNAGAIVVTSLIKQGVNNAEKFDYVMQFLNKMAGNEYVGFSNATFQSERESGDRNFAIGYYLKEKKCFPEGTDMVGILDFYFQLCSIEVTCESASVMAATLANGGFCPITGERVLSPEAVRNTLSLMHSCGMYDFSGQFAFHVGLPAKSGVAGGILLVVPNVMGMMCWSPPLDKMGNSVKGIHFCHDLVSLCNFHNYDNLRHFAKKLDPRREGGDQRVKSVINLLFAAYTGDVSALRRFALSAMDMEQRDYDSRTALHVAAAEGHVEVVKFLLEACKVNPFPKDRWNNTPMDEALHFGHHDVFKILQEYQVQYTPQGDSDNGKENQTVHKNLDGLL
UniProt O94888: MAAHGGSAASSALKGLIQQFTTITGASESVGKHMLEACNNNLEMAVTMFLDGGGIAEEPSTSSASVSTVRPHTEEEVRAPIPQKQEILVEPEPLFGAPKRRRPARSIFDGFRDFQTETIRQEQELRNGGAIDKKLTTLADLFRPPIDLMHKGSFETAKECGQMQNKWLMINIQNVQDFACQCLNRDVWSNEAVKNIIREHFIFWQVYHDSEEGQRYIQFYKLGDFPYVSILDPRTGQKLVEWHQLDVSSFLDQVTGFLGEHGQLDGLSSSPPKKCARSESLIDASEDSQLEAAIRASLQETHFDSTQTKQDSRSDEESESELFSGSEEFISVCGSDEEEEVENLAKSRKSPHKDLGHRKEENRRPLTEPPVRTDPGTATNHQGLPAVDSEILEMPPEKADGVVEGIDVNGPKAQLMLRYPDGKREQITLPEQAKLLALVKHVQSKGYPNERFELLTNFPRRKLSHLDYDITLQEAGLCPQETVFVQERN
UniProt O95140: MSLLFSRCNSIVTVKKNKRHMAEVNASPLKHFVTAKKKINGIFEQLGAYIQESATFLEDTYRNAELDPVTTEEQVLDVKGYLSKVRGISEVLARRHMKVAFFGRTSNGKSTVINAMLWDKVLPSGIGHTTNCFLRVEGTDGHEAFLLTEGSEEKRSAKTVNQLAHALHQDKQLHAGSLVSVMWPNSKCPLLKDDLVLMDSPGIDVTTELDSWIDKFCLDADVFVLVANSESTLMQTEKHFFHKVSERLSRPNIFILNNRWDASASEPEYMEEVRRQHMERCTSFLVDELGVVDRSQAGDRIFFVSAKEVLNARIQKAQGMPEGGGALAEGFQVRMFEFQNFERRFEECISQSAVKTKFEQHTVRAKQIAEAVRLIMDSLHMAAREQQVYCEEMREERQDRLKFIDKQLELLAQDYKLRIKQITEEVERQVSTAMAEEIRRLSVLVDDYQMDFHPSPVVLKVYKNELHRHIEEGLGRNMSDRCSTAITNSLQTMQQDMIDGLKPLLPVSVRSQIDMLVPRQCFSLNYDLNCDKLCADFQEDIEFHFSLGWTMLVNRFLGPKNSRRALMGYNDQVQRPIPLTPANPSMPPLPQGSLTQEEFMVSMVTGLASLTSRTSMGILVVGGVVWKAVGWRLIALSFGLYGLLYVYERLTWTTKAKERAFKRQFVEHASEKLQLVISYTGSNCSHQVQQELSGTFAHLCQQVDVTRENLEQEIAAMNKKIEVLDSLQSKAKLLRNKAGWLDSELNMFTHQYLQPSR

Compound: COC(=O)C#Cc1ccccc1 [methyl 3-phenylpropiolate]
Experiment: log2 ratio of iodoacetamide-alkyne labeling of the cysteine site, DMSO over compound (competition); higher = stronger covalent engagement of the cysteine by the compound, active = 1 or more
Conditions: 500 µM; treatment time 1 h; system: HEK293T cell lysate
In short: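 HEK293T lysate (2 mg/mL) was treated with DMSO or electrophile (500 µM, 1 h, ambient temperature), then iodoacetamide alkyne (1 h), clicked to sCIP-TMT reagents, pooled, trypsin-digested overnight at 37 °C, streptavidin-enriched and acid-eluted. Peptides were run on Orbitrap Eclipse LC-MS/MS with FAIMS and quantified in FragPipe. The log2 competition ratio per cysteine is mean control-channel over mean compound-channel reporter intensity. Duplicate channels and three replicates were used, and cysteines quantified in only one replicate were excluded.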

log2 ratio of iodoacetamide-alkyne labeling, active:
HEXIM1 C79 (UniProt O94992) 1.3

log2 ratio of iodoacetamide-alkyne labeling, inactive:
CAT C377 (UniProt P04040) 0.023
NR3C1 C367 (UniProt P04150) 0.737
EPRS C359 (UniProt P07814) 0.19
UniProt O94927_C262 0.162
ALDOA C178 (UniProt P04075) 0.345
SVIL C178 (UniProt O95425) 0.364
UniProt O94822_C498 0.086
GPI C404 (UniProt P06744) 0.296
GLUD1 C376 (UniProt P00367) 0.385
NPM1 C104 (UniProt P06748) 0.204
UniProt O96028_C1102 0.21
GNAI2 C112 (UniProt P04899) 0.0543
POLR1A C582 (UniProt O95602) -0.00115
NPM1 C21 (UniProt P06748) 0.178
WIZ C1429 (UniProt O95785) 0.218
ETHE1 C34 (UniProt O95571) -0.0541
UniProt O95478_C154 0.296
OAT C306 (UniProt P04181) 0.00204
PCNT C2185 (UniProt O95613) 0.362
SOD1 C112 (UniProt P00441) -0.0637
EPRS C1076 (UniProt P07814) 0.108
HERC2 C221 (UniProt O95714) 0.123
EPRS C105 (UniProt P07814) 0.298
ZRANB2 C71 (UniProt O95218) 0.139
SOD1 C58 (UniProt P00441) 0.393
GLS C266 (UniProt O94925) -0.0523
BAG3 C179 (UniProt O95817) 0.316
GPX1 C156 (UniProt P07203) 0.0378
GAPDH C156 (UniProt P04406) -0.0924
UBXN7 C478 (UniProt O94888) -0.172
RPLP1 C9 (UniProt P05386) 0.29
UniProt P04439_C363 0.336
MFN2 C348 (UniProt O95140) -0.0549
UniProt O95104_C102 -0.0481
TXNDC12 C66 (UniProt O95881) 0.593
EPRS C350 (UniProt P07814) 0.193
ZWINT C54 (UniProt O95229) 0.427

Reprinted at random: 2 records from the list
log2 ratio of iodoacetamide-alkyne labeling, inactive:
UBXN7 C478 (UniProt O94888) -0.172
EPRS C359 (UniProt P07814) 0.19
